Laboratory results as given in paper doi:10.1101/2020.08.07.234443.

Amino acid sequences for entries named in this document (tags omitted). A change or cut given only in a name is not applied to a line headed by its entry.
UniProt P39935: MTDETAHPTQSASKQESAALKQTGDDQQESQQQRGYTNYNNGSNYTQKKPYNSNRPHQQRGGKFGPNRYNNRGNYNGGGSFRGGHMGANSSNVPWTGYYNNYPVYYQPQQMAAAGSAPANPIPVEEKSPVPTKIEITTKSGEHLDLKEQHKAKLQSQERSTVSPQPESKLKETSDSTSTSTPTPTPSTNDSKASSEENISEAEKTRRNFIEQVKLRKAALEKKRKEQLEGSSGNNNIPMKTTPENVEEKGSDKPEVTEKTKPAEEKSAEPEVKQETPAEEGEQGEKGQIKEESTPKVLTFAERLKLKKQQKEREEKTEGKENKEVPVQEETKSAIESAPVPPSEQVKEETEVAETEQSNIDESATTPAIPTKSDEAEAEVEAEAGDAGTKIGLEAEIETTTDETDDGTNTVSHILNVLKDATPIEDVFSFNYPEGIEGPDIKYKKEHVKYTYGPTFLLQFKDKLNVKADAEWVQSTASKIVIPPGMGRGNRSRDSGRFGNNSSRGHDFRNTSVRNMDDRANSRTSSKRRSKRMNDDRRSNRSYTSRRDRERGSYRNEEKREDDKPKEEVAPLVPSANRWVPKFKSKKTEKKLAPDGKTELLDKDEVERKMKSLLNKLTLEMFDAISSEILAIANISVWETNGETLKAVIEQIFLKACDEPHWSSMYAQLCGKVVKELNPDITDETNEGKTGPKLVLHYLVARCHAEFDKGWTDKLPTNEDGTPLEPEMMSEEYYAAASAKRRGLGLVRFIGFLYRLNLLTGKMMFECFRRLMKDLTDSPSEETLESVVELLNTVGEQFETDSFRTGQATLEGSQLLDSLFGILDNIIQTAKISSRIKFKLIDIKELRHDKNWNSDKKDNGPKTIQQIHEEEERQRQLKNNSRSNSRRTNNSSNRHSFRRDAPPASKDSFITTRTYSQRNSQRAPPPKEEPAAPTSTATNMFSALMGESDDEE

Molecular target: T1, Pub1 RRM3 (S. cerevisiae) (UniProt P32588)
T1 sequence: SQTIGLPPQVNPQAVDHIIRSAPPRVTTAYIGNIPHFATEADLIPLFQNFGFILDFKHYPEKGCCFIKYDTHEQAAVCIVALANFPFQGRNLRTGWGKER
Test: NMR titration

binding	Substance
binds	eIF4G1_(1-184) ΔBOX2 (from UniProt P39935) (domain or fragment)
binds weakly	eIF4G1_(1-184) ΔBOX1 (from UniProt P39935) (domain or fragment)

No constants are given. Whether binding was seen depends on the method and setting. Binding calls can cover weak binding; strength is not graded here.
